No constants are given. Whether binding was seen depends on the method and setting. Binding seen in cells or lysates may run through a third protein. Some binding calls cover weakened binding; strength is not graded here. Sequences can lack the tags named with a protein.
Target: T1, GPR120 engineered to fuse with Renilla luciferase (RLuc8) at the C-terminus (mouse) (UniProt Q7TMA4)
T1 sequence: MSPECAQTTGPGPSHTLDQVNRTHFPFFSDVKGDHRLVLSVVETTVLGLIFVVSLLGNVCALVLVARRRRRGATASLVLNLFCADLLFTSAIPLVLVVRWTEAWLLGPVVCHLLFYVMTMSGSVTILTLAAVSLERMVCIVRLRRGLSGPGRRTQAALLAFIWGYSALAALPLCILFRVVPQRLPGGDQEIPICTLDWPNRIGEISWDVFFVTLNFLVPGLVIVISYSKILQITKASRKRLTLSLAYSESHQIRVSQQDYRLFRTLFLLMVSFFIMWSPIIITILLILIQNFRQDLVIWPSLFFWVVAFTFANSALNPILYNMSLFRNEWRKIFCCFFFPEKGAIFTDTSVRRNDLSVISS
Assay: FRET or BRET; living HEK-293T cells transfected with a 1:5 DNA ratio of GPR120-RLuc8 and mVenus-β-arrestin 1; 5 μM coelenterazine h; fatty acids (THA, EPA) at different concentrations for 5 min in 1x HBSS, 20 mM HEPES pH 7.4, 0.3% BSA; room temperature; BRET ratio for β-arrestin 1 recruitment

Chains of the proteins cited; added tags and fusions are not shown.
UniProt P49407: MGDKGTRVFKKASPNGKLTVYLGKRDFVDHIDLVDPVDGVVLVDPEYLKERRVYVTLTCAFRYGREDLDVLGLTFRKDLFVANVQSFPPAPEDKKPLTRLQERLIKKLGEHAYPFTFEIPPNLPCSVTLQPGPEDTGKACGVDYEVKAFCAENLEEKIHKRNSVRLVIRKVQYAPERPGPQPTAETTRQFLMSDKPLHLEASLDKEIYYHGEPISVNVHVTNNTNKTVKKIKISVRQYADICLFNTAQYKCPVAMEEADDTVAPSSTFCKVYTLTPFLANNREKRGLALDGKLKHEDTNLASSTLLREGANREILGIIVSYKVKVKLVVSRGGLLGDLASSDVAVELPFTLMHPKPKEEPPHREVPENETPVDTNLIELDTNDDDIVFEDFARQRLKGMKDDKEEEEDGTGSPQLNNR

β-arrestin 1 ligated to mVenus at the N-terminus (from UniProt P49407 1-418)
binding: binds

— publication PMC11101658
